Test results published in article PMC12697865, “ZFPL1 Promotes Colorectal Cancer Progression by Stabilizing ASS1 to Drive the Urea Cycle and M2 Macrophage‐Mediated Metastatic Colonization” (Advanced Science, 2025).
No constants are given. Whether binding was seen depends on the method and setting. Binding seen in cells or lysates may run through a third protein. A yes stands for co-enrichment or nearness to the bait. Other partners may have been found. Each block holds one molecule with its values, some of them ahead of it.

Chains of the proteins cited; added tags and fusions are not shown.
UniProt Q9UPN9: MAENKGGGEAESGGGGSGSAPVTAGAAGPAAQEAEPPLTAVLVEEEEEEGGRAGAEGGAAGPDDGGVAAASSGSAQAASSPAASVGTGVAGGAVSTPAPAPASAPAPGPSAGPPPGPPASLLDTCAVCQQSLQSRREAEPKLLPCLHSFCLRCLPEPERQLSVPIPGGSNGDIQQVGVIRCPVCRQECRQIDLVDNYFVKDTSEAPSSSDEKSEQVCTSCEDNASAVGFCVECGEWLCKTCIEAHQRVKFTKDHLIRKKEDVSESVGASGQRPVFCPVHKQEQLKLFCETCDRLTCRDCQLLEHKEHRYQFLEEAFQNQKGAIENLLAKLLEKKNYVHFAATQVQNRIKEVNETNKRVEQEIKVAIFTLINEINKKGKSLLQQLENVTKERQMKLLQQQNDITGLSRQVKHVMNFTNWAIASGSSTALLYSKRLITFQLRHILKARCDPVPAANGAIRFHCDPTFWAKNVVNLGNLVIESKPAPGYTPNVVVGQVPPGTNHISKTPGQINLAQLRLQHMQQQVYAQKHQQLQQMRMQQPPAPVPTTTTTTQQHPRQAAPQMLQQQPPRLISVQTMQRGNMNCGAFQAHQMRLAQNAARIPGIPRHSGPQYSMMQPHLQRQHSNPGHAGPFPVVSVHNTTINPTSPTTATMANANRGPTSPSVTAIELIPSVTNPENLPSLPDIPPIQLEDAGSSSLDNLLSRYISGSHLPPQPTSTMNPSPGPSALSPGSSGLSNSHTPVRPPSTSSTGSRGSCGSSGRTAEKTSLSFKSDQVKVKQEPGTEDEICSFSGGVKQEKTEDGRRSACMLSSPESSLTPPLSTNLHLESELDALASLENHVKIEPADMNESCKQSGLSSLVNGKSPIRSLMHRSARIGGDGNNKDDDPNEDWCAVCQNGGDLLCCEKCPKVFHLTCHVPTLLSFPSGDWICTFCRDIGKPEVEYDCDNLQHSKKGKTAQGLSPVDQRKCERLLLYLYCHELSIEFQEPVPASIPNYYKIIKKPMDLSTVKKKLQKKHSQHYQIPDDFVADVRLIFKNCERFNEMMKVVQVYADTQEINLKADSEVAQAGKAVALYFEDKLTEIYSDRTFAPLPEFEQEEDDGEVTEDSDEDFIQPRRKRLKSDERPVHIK

Tests used:
ASS1 in CRC cells = molecular target: T1, ASS1 in CRC cells (UniProt P00966); assay: affinity purification with mass spectrometry; LC-MS/MS of ASS1-bound proteins (ASS1 IP/MS)
T1 sequence: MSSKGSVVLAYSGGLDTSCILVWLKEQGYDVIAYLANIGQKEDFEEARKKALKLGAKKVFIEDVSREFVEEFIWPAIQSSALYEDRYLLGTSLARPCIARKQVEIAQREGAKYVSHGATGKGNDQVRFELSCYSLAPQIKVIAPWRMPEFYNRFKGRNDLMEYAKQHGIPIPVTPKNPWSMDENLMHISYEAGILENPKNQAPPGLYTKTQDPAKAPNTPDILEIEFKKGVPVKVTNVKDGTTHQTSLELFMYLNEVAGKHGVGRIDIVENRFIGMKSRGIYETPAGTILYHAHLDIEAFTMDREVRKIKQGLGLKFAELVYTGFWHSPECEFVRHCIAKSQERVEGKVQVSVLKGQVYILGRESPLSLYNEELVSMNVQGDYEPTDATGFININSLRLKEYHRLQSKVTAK

[1] = molecular target: T2, ZFPL1 immunoprecipitated for mass spectrometry (human) (UniProt O95159); assay: affinity purification with mass spectrometry; IP of ZFPL1 and negative control, SDS-PAGE band cut out for mass spectrometry (TripleTOF 5600); CRC cells by the results, HEK293T transfected by the methods
T2 sequence: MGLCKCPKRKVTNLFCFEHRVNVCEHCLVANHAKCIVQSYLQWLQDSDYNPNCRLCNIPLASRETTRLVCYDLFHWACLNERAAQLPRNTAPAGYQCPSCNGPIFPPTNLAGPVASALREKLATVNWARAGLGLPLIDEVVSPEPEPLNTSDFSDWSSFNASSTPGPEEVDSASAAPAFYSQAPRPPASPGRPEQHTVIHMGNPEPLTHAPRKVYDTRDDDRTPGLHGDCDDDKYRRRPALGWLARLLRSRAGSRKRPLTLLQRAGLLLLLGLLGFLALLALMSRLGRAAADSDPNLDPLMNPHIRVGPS

binding (ASS1 in CRC cells): binds
Molecule: TRIM33 (tripartite motif containing 33) in CRC cells (from UniProt Q9UPN9 1-1127)

binding [1]: binds
B1: ASS1 in CRC cells (protein, UniProt P00966 1-412)
chain: T1 sequence
